Screening data, single-dose tests

Results are given as percent effect.
How 0% and 100% were set is not recorded. Most values in the screen are low, and negative values occur.
This is an unselected part of the compounds tested.
A dash means the value is not listed here; it may have been measured.

T. brucei: 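Whole-parasite assay of Trypanosoma brucei over 72 hours; the read-out is not stated. Concentration: 30 µM. Higher reads as stronger inhibition (inferred: compounds with an IC50 in retests scored well above the rest). Values scatter widely below zero; nearly all retest evidence comes from the higher of the two concentrations used. About 64,000 compounds were tested under these conditions; 1.5% (about 940) showed 50% or more at least once.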
Toxoplasma: 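Assay of Toxoplasma gondii numbers, read through their beta-galactosidase reporter with a colour substrate. Tested at 10 µM. The record gives no direction; the compounds picked for IC50 retests had high values, so higher reads as fewer parasites. Of about 67,000 compounds tested this way, about 260 (0.38%) reached 50% or more in at least one test.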

| Compound | T. brucei | Toxoplasma |
|---|---|---|
| `O=C(CCN1CCc2ccccc21)N1C[C@@H](O)[C@H](N2CCOCC2)C1` | -8.111 | 8.168 |
| `N#CC1(C(=O)Nc2ccc(OC(F)F)cc2)CCCC1` | -42.67 | -7.56 |
| `CN1CCCCC(C2CCN(S(=O)(=O)c3cn(C)cn3)CC2)C1=O` (stereo not drawn) | -11.75 | -8.843 |
| `Cc1ncc2c(n1)CN(CC(=O)Nc1nccs1)CC2` | -22.86 | -1.068 |
| `C=C(C)COc1cccc(C(=O)N(C)C(C)c2ccncn2)c1` (stereo not drawn) | 0.7743 | -11.32 |
| `COc1ccc(C(C)NCc2cnnn2C)cc1F` (stereo not drawn) | -45.77 | -1.206 |
| `O=C(O)CCc1cc2n(n1)CCCN(C(=O)c1ccc3cc[nH]c3c1)C2` | 8.987 | -4.847 |
| `CN(C)c1ccccc1CN1CCCCC1CNS(C)(=O)=O` (stereo not drawn) | -12.9 | -12.62 |
| `Cn1ccnc1S(=O)(=O)C(C(=O)N1CCCCC1)c1ccccc1` (stereo not drawn) | -67.03 | 13.52 |
| `[H][C@@]12CN(Cc3ccncc3)C[C@]1([H])N(CCCN1CCOCC1)C(=O)O2` | -21.02 | -8.418 |
| `O=C(O)C(F)(F)F.[H][C@@]12COC[C@]1(c1nc(C)no1)CN(Cc1cc(C)on1)C2` | -69.93 | -5.266 |
| `CS(=O)(=O)c1cncnc1C1CCCN(C(=O)Nc2ccccc2F)C1` (stereo not drawn) | -14.23 | -3.239 |
| `Cn1c(SCC(O)COCc2ccccc2Cl)nnc1C1CC1` (stereo not drawn) | -11.61 | 22.17 |
| `CCc1c(C)nc2cc(-c3nccn3C)nn2c1N1CCCC(CO)C1` (stereo not drawn) | 50.14 | 33.35 |
| `Cc1ccc(NC2CCN(C(=O)CN(C)C3CC3)CC2)nn1` | 45.27 | -6.13 |
| `COCC1CC2(CCN(C(=O)c3ccc(F)c(Cl)c3)CC2)CO1` (stereo not drawn) | -160.3 | -9.296 |
| `CC(=O)N1CCN(C[C@H]2CC[C@@H](Cc3ccc4ncccc4c3)O2)CC1` | -43.48 | 22.62 |
| `CN(C)C(=O)C1CCc2nnc(C(C)(C)C)n21` (stereo not drawn) | - | 9.126 |
| `O=C(O)C(F)(F)F.O=C(O)C(F)(F)F.[H][C@@]12CN(Cc3ccoc3)CCC[C@]1(C(=O)O)CN(CCOC)C2` | -98.79 | 0.4507 |
| `COCc1cnc2n1CCN(C1CCC1)C2C.O=C(O)C(F)(F)F` (stereo not drawn) | -7.722 | 3.941 |
| `Cn1nnnc1SCCC(=O)NCC(C)(C)c1ccccc1F` | -69 | 2.462 |
| `COc1ccc(S(=O)(=O)NCc2cccnc2N(C)C)cc1F` | -9.47 | - |
| `Cc1noc(C)c1C(C)NC(=O)N1CCCN(C(=O)c2ccsc2)CC1` (stereo not drawn) | -11.21 | 2.483 |
| `Cn1cnc2c1CCN(Cc1nc(-c3ccsc3)no1)C2` | -7.48 | 5.924 |
| `CN(Cc1ccc(C(=O)NCC2COCCO2)c(=O)[nH]1)CC(C)(C)C` (stereo not drawn) | -9.703 | 9.606 |
| `CNC(=O)c1cnc(/C=C/c2cc(OC)cc(OC)c2)s1` | -41.74 | -5.18 |
| `Cc1ncc(CNC2CC(=O)N(CCc3cccc(Cl)c3)C2)n1C` (stereo not drawn) | -37.82 | 2.182 |
| `c1cnc(OCc2nnc3n2CCN(CC2CC2)C3)nc1` | 15.24 | -1.76 |
| `Cc1noc(C(C)N2CCN(CCc3ccncc3)CC2)n1` (stereo not drawn) | -25.22 | 2.822 |
| `Cc1nc(CNCC(O)COc2ccc3c(c2)OCO3)cs1` (stereo not drawn) | -55.36 | 3.725 |
| `CCS(=O)(=O)N1CCc2ccc(=O)n(CC3CC3)c2CC1` | -16.27 | 4.063 |
| `Cc1nc(NCCC23CCCN2CCC3)cc(C2CCCNC2)n1` (stereo not drawn) | -17.08 | -8.614 |
| `Cc1cc(S(=O)(=O)N2CCC(S(C)(=O)=O)C2)ccc1F` (stereo not drawn) | -18.66 | -2.129 |
| `Cc1nc(C(=O)N(C)CC(F)(F)C(F)(F)F)c2ccccn12` | -60.22 | 5.066 |
| `O=C(O)C(F)(F)F.[H][C@]12CCN(Cc3ccc(F)cc3)C[C@@]1([H])OCCN(S(C)(=O)=O)C2` | -28.62 | 0.378 |
| `CC(C)Cn1cncc1CNC1CCSC1` (stereo not drawn) | -45.27 | 5.475 |
| `CCCOc1cc(C)ccc1NC(=O)NCCNC(C)=O` | - | 20.03 |
| `NC(=O)c1cc(C2CCCN(Cc3ccc4c(c3)OCCO4)C2)n[nH]1` (stereo not drawn) | -29.4 | 3.565 |
| `COCc1nc(C(=O)NS(=O)(=O)c2cc(F)ccc2F)cs1` | -6.725 | 3.083 |
| `Cc1nccc(CNC(=O)CCc2c(C)nc3cc(O)nn3c2C)n1` | -9.067 | 21.68 |
| `O=C(c1ccncc1)N1CCC(Oc2cccc(C(F)(F)F)c2)CC1` | 37.18 | -1.614 |
| `Cn1ncnc1NCc1ccc(Br)cc1` | -33.61 | -11.69 |
| `O=C(O)C(F)(F)F.[H][C@@]12CCCO[C@]1([H])[C@H](NC(=O)C1CC1)CN(Cc1ccccc1)C2` | 11.5 | -2.457 |
| `CC(C)CC(NC(=O)c1cc(-c2cccn2C)n[nH]1)c1ncnn1C` (stereo not drawn) | -22.02 | -7.242 |
| `CCn1cnnc1CNC(=O)N1CCN(CCc2ccccc2)CC1` | - | 14.97 |
| `CCCN(C(=O)COC)c1nc2c(s1)CCc1c-2cnn1C` | 12.12 | -2.929 |
| `CCc1ccc(C(=O)O)cc1S(=O)(=O)N(C)c1cccc(C)c1` | -3.949 | 6.815 |
| `Cn1cc(C(=O)O)c(-c2ccc(F)cc2F)n1` | -19.75 | 7.344 |
| `CC(NC(=O)N1CCCN(Cc2cccs2)CC1)c1cccnc1` (stereo not drawn) | 1.779 | -27.38 |
| `CCCn1nccc1NC(=O)c1ccc(Cl)c(N2CCNC2=O)c1` | -145.7 | -12.52 |
| `O=C(NCCn1ccnc1)N1CCCC1c1cccs1` (stereo not drawn) | -6.278 | -7.433 |
| `Cc1csc(N(C)C(=O)C(c2c(F)cccc2Cl)N(C)C)n1` (stereo not drawn) | -5.49 | 0.3358 |
| `[H][C@]12CC[C@]([H])(CN(C(=O)c3cnccn3)C1)N(S(=O)(=O)c1cccnc1)C2` | 1.74 | -7.502 |
| `Cc1cnn(C2CCCN(C(=O)CCc3cscn3)C2)c1` (stereo not drawn) | -0.08027 | -5.063 |
| `O=C(NCCNc1ncccn1)c1scnc1Cl` | -5.978 | 0.05294 |
| `CN1CC(c2ccccc2)CC12CCN(C(=O)c1ccc(F)cc1)CC2` (stereo not drawn) | -29.98 | -3.125 |
| `CCOCC1CN(c2ccncn2)Cc2cnn(CC)c21.O=C(O)C(F)(F)F.O=C(O)C(F)(F)F` (stereo not drawn) | 24.08 | 3.983 |
| `Cn1ccc(CN2CCC(NC(=O)Cc3ccccc3)CC2)cc1=O` | -18.34 | -9.248 |
| `Fc1ccc(-c2n[nH]cc2CNCCn2cccn2)cc1` | - | 5.712 |
| `Cc1cc(NC(=O)CN2CCN(c3nccs3)C(C)C2)no1` (stereo not drawn) | 4.096 | -7.575 |
| `CN(CCCOc1ccccc1)S(=O)(=O)c1cnn(C)c1` | - | 14.38 |
| `Cc1ccc(F)c(C(=O)N2CCC(Nc3ccc(C)nn3)CC2)c1` | -10.61 | -14.91 |
| `O=S(=O)(NCC1(O)CCOc2ccccc21)c1ccc(Cl)s1` (stereo not drawn) | 16.79 | 4.661 |
| `CCCOC1CCCN(C(=O)Cn2cccc(C(F)(F)F)c2=O)C1` (stereo not drawn) | -12.87 | 3.792 |
| `CCCC(=O)N1CCN(CC(O)COCC)CC1` (stereo not drawn) | -16.3 | 0.5624 |
| `Cc1cscc1C(=O)Nc1cc(CSCCO)ccn1` | -148.6 | 7.34 |
| `O=C(Cn1cnc2ccccc2c1=O)Nc1cc(C2CC2)n[nH]1` | -8.392 | 5.882 |
| `CSC1=Nc2c(cnn2-c2cccc(Cl)c2)C2=NCCCN12` | - | -5.544 |
| `Cc1ccc2[nH]c(=O)cc(C(=O)N[C@@H]3C[C@@H](CO)N(C)C3)c2c1` | -8.278 | -14.06 |
| `O=c1cc(CN2CCCC(CCc3c(F)cccc3F)C2)[nH]c(=O)[nH]1` (stereo not drawn) | -1.311 | -5.078 |

9 of the entries, repeated:

Compound	T. brucei	Toxoplasma
CC(C)CC(NC(=O)c1cc(-c2cccn2C)n[nH]1)c1ncnn1C (stereo not drawn)	-22.02	-7.242
CCCN(C(=O)COC)c1nc2c(s1)CCc1c-2cnn1C	12.12	-2.929
CCCOC1CCCN(C(=O)Cn2cccc(C(F)(F)F)c2=O)C1 (stereo not drawn)	-12.87	3.792
COCC1CC2(CCN(C(=O)c3ccc(F)c(Cl)c3)CC2)CO1 (stereo not drawn)	-160.3	-9.296
N#CC1(C(=O)Nc2ccc(OC(F)F)cc2)CCCC1	-42.67	-7.56
Cc1cc(NC(=O)CN2CCN(c3nccs3)C(C)C2)no1 (stereo not drawn)	4.096	-7.575
CN1CC(c2ccccc2)CC12CCN(C(=O)c1ccc(F)cc1)CC2 (stereo not drawn)	-29.98	-3.125
O=c1cc(CN2CCCC(CCc3c(F)cccc3F)C2)[nH]c(=O)[nH]1 (stereo not drawn)	-1.311	-5.078
Cc1ccc2[nH]c(=O)cc(C(=O)N[C@@H]3C[C@@H](CO)N(C)C3)c2c1	-8.278	-14.06

The values are deposited in ChEMBL (CHEMBL3988442, “University of Dundee, Small-Polar-MMV Screening Library” (2021)).